About 5,900 (2.8%) of roughly 210,000 compounds were called active. Another 5% or so got no clear call; they are omitted. The call rests on the fitted dose curve; in most records, active means well fitted activation curve with a large enough effect; inconclusive means small, poorly fitted or top-dose-only effect; inactive means no such curve, though single readings can be large or run the other way. The list shows a part of the results, in another mix than the full data. Where no call is shown, the source filed none.
Experiment: qHTS Assay for Enhancers of SMN2 Splice Variant Expression; further: nearly all actives have a fitted effect of over 55% in size; on activity change, positive = activation: % of control where 0% means no effect
Conditions: HEK293 SMN2-luciferase splicing reporter, luminescence, 30-36 h; activity change, positive = activation: at 46.1 µM (top of the series) unless noted
Method in brief: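 HEK293 cells carry an SMN2 minigene-luciferase reporter in which exon 7 inclusion puts luciferase in frame. Cells were seeded at 2000 cells/well, attached for 10-12 hours, then exposed to compounds for 30-36 hours at 37C before ONE-Glo luminescence.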
Potency means the concentration at half of the fitted maximal effect.

Row | SMILES | activity change, positive = activation | Potency
1 | COC(=O)COc1ccc(S(=O)(=O)NCc2ccco2)cc1Cl | 38.8% | 
2 | CCOC(=O)N1CCN(S(=O)(=O)c2cc(OCC(N)=O)c(C)cc2Cl)CC1 | 33.8% | 
3 | Cc1ccc(C(=O)Nc2ccc(SC(F)F)cc2)s1 |  | active: 7.08 µM
4 | Cc1oc(C)c(C(N)=O)c1C(N)=O | 55.8% | 
5 | O=S1(=O)C=C(SCc2ccc(Cl)c(Cl)c2)Nc2ccccc21 | inactive: -76.7% | 
6 | CCc1ccc(CNC(=O)Cn2c(-c3cccs3)cc3cc(F)ccc32)cc1 | 49.3% | 
7 | Cc1ccc2nc(-c3cccnc3SCC(=O)N3c4ccccc4CC3C)[nH]c2c1 (configuration not stated) |  | active: 14.1 µM
8 | CCOc1c2ccc(C(=O)NCCc3cccs3)cc2nn1CC |  | active: 14.1 µM
9 | CCOC(=O)c1nn(-c2ccc(C)cc2)cc1C(=O)c1ccccc1 |  | active: 11.2 µM
10 | O=C(Nc1ccc(Cc2ccncc2)cc1)C1CCC(N2C(=O)C3C4C=CC(C5CC45)C3C2=O)CC1 (configuration not stated) | inactive: -66.4% | 
11 | N/C(=N\OC(=O)COc1ccccc1Cl)c1ccccn1 |  | active: 12.6 µM
12 | O=C(NC1=NCCS1)c1cccc(OC(F)F)c1 |  | active: 11.2 µM
13 | CCCC(=O)Nc1ccc(NC(=O)C23CC4CC(CC(C4)C2)C3)cn1 | 38.1% | 
14 | COc1ccc2nc(NC(=O)CCNS(=O)(=O)c3ccc4c(c3)oc(=O)n4C)sc2c1 | 30.1% | 
15 | CC(=O)c1ccc(NC(=S)NC(=O)CC(C)C)cc1 |  | active: 7.94 µM
16 | CN1C(=O)/C(=C/C=C2\SCCN2C)OC1=S |  | active: 12.6 µM
17 | Cc1nn(C)cc1CN(C)C(=O)CC12CC3CC(CC(C3)C1)C2 | -21.4% | 
18 | CC(=O)c1c(C)[nH]c(C(=O)OCC(=O)Nc2ccc(Cl)cc2[N+](=O)[O-])c1C | inactive: -77.4% | 
19 | CCOc1ccc(OCC(=O)Nc2nccs2)cc1 |  | active: 5.01 µM
20 | CCC(C)(C(=O)NC1CCCCC1)N(C(=O)C1CCC(=O)N1)c1ccc(C)cc1 (configuration not stated) | 24.5% | 
21 | CC(OC(=O)c1ccccc1N1C(=O)C2C3CCC(C3)C2C1=O)C(=O)c1ccccc1 (configuration not stated) | 33.4% | 
22 | O=C(N/N=C/c1ccc[nH]1)c1cc(-c2ccc(Cl)cc2)nc2ccccc12 | inactive: -33.1% | 
23 | O=C(Nc1ccc(Br)cc1)c1ccccc1CC[N+](=O)[O-] | 38.7% | 

Row | SMILES | activity change, positive = activation | Potency
24 | COc1ccccc1CNc1nc2nc(C)cc(=O)n2[nH]1 | 32.4% | 
25 | Cn1cnnc1SCC(=O)Nc1sccc1C#N | 44.2% | 
26 | CCCc1nc2ccccc2n1Cc1ccccc1OC | inactive: -46.7% | 
27 | O=C(N/N=C/c1sc2ccccc2c1O)c1cccc2ccccc12 | inactive: -91.6% | 
28 | CC1(C)CC(C)(O)P(=O)(c2ccccc2)O1 (configuration not stated) | 44.6% | 
29 | N#Cc1c(C(F)(F)F)cc(-c2ccccc2)nc1SCC(=O)Nc1sc2c(c1C#N)CCC2 | -11.8% | 
30 | COCC(C)N1C(=O)Cc2c1nc(N)c1c(N)nc(N3CCN(c4ccccc4F)CC3)c(C#N)c21 (configuration not stated) | -77.2% | 
31 | CC1=CN2C(=N)/C(=C/c3cn(CCCOc4ccccc4C)c4ccccc34)C(=O)N=C2S1 | inactive: -48.4% | 
32 | COc1ccc2c(c1)c1c(c(=O)n(-c3cccc(C)c3)c(=O)n1CC(=O)Nc1c(C)cc(C)cc1C)n2C | 34.1% | 
33 | CC(C)CN(CCCNC(=O)CN1C(=O)COc2ccc(S(=O)(=O)N3CCCCCC3)cc21)CC(C)C | 35.8% | 
34 | Cc1cccc[n+]1CCCCCCCCCC[n+]1ccccc1C | inactive: -30.9% | 
35 | Cc1c(NC(=O)c2cc(-c3cccc(Cl)c3)on2)c(=O)n(-c2ccccc2)n1C | 35.6% | 
36 | CCOc1cc(N(CC)CC)ccc1/C=C(/C#N)c1nc2ccccc2[nH]1 | inactive: -46.7% | 
37 | COc1ccc(-c2[nH]c3ccccc3c2SCCNC(=O)c2ccccc2)cc1 | inactive: -49.2% | 
38 | CC1CC1C(=O)Nc1nc(-c2ccccc2)cs1 (configuration not stated) | inactive: -7.04% | 
39 | Cc1ccc(C)c(-c2cc(C(=O)Nc3sc(C)c(C)c3C(N)=O)c3ccccc3n2)c1 | inactive: -81.5% | 
40 | COc1ccc(S(=O)(=O)NNC(=O)c2ccccc2-n2cccc2)cc1 | 30.9% | 
41 | Cc1cccc(/C=C\c2nc3ccccc3c(=O)[nH]2)c1 |  | active: 2.82 µM
42 | CC(=O)c1c(C)[nH]c(C(=O)OCC(=O)Nc2cccc(S(=O)(=O)N3CCCC3)c2)c1C | inactive: -66.2% | 
43 | C/C(CC(=O)NCCCN1CCOCC1)=N\NC(=O)COc1cccc2ccccc12 | 1.01% | 
44 | CC(C)CC(c1nnnn1Cc1ccccc1)N1CCN(C(=O)c2ccco2)CC1 (configuration not stated) | 30.3% | 
45 | COc1ccc(CN2CCN(C(=O)C3CC(=O)N(C4CCCCCC4)C3)CC2)c(OC)c1OC (configuration not stated) | -56.3% | 
46 | CCOC(=O)c1ccc(Nc2ccc([N+](=O)[O-])cn2)cc1 | 33.5% | 

Row | SMILES | activity change, positive = activation | Potency
47 | Cc1cccc(C)c1-n1cccc1/C=C1/C(=N)N2C(=NC1=O)SN=C2S(C)(=O)=O | inactive: -37.4% | 
48 | O=c1n(Cc2ccc(Cl)cc2)c2sc3c(c2c2ncnn12)CCCC3 | -33.1% | 
49 | O=S(=O)(c1ccccc1)N1CCC[C@@]2(CCN(Cc3nccs3)C2)C1 | inactive: -62.5% | 
50 | COCCNC(=O)c1cc2oc3ccccc3c2n1C | 51.3% | 
51 | O=C(Nc1cnc2ccccc2c1)c1cccnc1 |  | active: 12.6 µM
52 | Cc1cc(C)c2c(c1)c(C)cc1nnc(SCC(=O)NCc3ccco3)n12 | 48.1% | 
53 | CCCNC(=O)C(Sc1ccccc1)c1ccccc1 (configuration not stated) | -18.3% | 
54 | COc1ccc2c(c1)Cc1sc(NC(C)=O)nc1-2 |  | active: 5.62 µM
55 | CCOc1ccccc1CNC(=O)C1CCN(c2nnc(-n3c(C)ccc3C)s2)CC1 | 32.7% | 
56 | COc1cccc2cc(-c3ccnc(N)n3)oc12 | 134% | 
57 | Cc1ccc(NC(=O)c2ccccc2)s1 |  | active: 2 µM
58 | COc1ccc(N=C2SC(CC(=O)Nc3ccccc3OC)C(=O)N2Cc2ccco2)cc1 (configuration not stated) | 34% | 
59 | Cc1ccc(NC(=O)CSc2ccc(-c3ccccn3)nn2)cc1 | inactive: -39.3% | 
60 | O=C(c1ccco1)N1CCC(c2nc(-c3ccccc3Cl)no2)CC1 | 31.4% | 
61 | O=C(Nc1cccc([N+](=O)[O-])c1)c1ccc(CN2CCOCC2)cc1 | -40% | 
62 | O=C(/C=C/c1cccs1)Nc1nccs1 |  | active: 12.6 µM
63 | CCCn1nnnc1NCc1ccccc1OCc1ccc(F)cc1 | 33.6% | 
64 | O=c1c(Br)c(N2CCCCC2)cnn1-c1ccccc1 | 225% | 
65 | O=C1N/C(=N\N=C\c2cccnc2)SC1Cc1ccc(SC(F)F)cc1 (configuration not stated) | inactive: -66.4% | 
66 | N/C(=N\OC(=O)c1ccc(Br)o1)c1cccnc1 | 33.4% | 
67 | O=C(Nc1cccnc1)c1ccc(Cl)c(S(=O)(=O)N2CCc3ccccc32)c1 | inactive: -64.9% | 

Laid out differently: results already given
CCCn1nnnc1NCc1ccccc1OCc1ccc(F)cc1
  activity change, positive = activation: 33.6%
O=c1c(Br)c(N2CCCCC2)cnn1-c1ccccc1
  activity change, positive = activation: 225%
O=C1N/C(=N\N=C\c2cccnc2)SC1Cc1ccc(SC(F)F)cc1 (configuration not stated)
  activity change, positive = activation: inactive: -66.4%
N/C(=N\OC(=O)c1ccc(Br)o1)c1cccnc1
  activity change, positive = activation: 33.4%

Reference: PubChem BioAssay AID1458 (National Center for Advancing Translational Sciences (NCATS), 2008)
